Results on one sequence are retold here after patent publication US20160114004.

The chains behind the UniProt entries cited, without tags or fusion partners. Residues count along the entry.
UniProt Q3TKT4, 774-1310: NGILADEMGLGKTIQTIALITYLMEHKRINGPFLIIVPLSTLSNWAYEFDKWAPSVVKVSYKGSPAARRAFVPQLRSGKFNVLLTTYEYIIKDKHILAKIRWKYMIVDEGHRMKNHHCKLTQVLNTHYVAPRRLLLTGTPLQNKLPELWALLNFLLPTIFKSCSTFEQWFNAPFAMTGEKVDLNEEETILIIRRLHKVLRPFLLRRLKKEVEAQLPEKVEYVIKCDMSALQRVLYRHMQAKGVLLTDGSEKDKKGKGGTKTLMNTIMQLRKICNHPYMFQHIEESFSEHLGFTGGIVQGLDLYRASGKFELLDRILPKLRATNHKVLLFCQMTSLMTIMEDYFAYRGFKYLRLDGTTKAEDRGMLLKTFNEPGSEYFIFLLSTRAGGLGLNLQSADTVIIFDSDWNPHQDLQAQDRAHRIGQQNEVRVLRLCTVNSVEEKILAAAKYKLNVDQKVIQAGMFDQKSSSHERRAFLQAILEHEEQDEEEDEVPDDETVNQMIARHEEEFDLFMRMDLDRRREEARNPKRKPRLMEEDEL

This series has as its target Brg1 (Smarca4) helicase region D1D2 (Mus musculus) (UniProt Q3TKT4). Description: EMSA. The settings on record: 10 mM HEPES-KOH pH 7.3, 10 mM NaCl, 1 mM MgCl2, 1 mM DTT, tRNA carrier, room temperature; purified recombinant protein; protein details: MBP fusion (pMAL, amylose purified); label: biotin (NTP mix, in vitro transcribed). (Mobility shift assays separate free from complexed probe on a gel.)

For at least one entry, the source does not settle the construct or the ends of the probe.

As for “AAGAGCCCUACAGUCUGAUGAACAUUCUAGAGUAUGUGGACACAGAUGGACGCUCUGGCCACAGCCCGCAGCUCCUCCAGCUCCGCCUGCAGCAGAUUGUUGCGCCGUUCCACGAUGGCGAUGUUCUCCUUCAGGUCAUCAUUGGCACGGACAGCAUCAUCCAGCUGGAUUUGAGUGUCCUGAGGAUCAGAAAAAUGAGUGGCCUCAUUGCGGCUGCGUGUCUCCGCAUCCAGGGAGGUCUGCAGGGAGUCCACCAUCCGCAGGUGGUUGCGCUUGGCCUGCUCCAUCUCCUCAUCCUUCUCUGCCAGCUUCCUUUCGAUCUCUGCCUUGAUCUGGUUGAACUCCAGCUGGGCGCGGAGGAUCUUGCCCUCCUCGUGCUCCAGGGAGGCCUGGAAAGGAUAUAGAUUUUGCAGGCAUAUAGUCAGAGACCAGGGUGGAAGCAAGGGUGUGUCUAAAAACCAUGGCACAGAGAGCAUUUGGGGAUGGUAUACAUGACUCAGUAGGAGAUGCAGAGGAAGGAAAUGAGAAAGAGUGUGCACAAGAGAAAUGAAAGCAAGCUGAAGAGAAGGGGAUGCAGACUCCCAGGGGGGCGGAGGGAGUCAGCUUUGAAGACAAAGAGGAAAAUGAAAAGUGUUGCCAAGGAAACAGAGGCAAUGAAGCAGAGAGUAAAGGAAAAAAAAAAAAAAAACUACCACACACAGGCAGGCAGAGGUGGAAAGUGGAAUGAGCUGAAAUAGGAGUCUUUCUAAGGUACAGUAAAUAAAAUGUUUGUGUGAAGG [Mhrt779]”, the binding result is recorded as “binds”.
